Results: the supplement of paper PMC6411743
± gives the standard deviation of the averaged measurements. The list shows a part of the results.

Protein sequences, listed by entry. Tags and fused reporters are not part of them. Lines headed by an entry give the natural chain unless they say otherwise; changes in a name come on top.
UniProt Q15024, whole entry: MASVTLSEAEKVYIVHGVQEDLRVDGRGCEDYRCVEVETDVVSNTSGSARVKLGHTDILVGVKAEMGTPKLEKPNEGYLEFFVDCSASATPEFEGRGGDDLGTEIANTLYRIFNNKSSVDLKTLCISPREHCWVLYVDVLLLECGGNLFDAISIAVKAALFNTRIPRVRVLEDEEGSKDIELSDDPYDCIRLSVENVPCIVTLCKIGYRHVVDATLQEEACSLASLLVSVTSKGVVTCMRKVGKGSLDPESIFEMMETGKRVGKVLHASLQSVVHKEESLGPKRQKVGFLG
UniProt Q16537, whole entry: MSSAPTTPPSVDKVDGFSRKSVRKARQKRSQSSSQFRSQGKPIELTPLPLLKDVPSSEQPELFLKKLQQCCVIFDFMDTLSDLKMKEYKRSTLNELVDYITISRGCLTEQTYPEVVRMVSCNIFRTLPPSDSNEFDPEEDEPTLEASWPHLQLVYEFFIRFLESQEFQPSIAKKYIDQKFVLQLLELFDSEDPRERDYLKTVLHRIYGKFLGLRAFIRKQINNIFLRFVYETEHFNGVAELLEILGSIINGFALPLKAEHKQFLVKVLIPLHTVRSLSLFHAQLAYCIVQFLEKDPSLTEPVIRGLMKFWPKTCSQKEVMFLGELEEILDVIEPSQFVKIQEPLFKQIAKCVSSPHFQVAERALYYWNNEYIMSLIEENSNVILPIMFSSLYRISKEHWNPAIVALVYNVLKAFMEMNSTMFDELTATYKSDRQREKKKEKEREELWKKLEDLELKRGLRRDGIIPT
UniProt Q14692: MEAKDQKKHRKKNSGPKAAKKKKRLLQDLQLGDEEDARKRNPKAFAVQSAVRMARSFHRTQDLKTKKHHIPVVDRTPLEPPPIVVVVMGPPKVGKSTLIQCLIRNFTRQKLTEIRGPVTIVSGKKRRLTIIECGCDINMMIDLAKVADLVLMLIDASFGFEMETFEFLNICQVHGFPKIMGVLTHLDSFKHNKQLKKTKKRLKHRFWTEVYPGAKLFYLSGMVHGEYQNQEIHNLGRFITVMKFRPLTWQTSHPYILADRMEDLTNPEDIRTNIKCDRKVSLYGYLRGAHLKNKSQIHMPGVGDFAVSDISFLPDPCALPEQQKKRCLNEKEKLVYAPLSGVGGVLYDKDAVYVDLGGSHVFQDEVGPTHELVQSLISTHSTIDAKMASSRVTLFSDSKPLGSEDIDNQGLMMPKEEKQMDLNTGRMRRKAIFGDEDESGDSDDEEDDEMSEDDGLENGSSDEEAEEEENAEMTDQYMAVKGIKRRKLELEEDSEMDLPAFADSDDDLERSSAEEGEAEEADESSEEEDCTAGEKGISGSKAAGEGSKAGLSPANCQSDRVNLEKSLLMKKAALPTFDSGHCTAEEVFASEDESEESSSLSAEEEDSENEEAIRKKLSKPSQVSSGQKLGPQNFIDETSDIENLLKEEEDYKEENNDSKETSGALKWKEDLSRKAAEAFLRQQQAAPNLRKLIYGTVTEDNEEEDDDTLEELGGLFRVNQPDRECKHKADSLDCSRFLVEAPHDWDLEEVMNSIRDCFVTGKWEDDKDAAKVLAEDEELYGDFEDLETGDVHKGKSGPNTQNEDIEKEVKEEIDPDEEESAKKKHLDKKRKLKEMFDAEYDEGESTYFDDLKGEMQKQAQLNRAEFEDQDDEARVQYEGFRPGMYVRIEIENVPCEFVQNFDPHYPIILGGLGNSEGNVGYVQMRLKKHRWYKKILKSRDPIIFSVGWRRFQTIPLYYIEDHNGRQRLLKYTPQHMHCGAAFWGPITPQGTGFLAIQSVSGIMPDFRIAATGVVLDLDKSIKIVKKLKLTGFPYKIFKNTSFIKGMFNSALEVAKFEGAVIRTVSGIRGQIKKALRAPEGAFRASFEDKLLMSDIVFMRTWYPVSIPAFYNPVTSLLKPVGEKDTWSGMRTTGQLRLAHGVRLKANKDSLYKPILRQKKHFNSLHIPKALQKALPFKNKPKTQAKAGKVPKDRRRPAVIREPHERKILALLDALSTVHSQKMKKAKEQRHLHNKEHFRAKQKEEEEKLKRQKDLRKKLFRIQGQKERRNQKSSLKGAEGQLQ
UniProt Q5JSH3: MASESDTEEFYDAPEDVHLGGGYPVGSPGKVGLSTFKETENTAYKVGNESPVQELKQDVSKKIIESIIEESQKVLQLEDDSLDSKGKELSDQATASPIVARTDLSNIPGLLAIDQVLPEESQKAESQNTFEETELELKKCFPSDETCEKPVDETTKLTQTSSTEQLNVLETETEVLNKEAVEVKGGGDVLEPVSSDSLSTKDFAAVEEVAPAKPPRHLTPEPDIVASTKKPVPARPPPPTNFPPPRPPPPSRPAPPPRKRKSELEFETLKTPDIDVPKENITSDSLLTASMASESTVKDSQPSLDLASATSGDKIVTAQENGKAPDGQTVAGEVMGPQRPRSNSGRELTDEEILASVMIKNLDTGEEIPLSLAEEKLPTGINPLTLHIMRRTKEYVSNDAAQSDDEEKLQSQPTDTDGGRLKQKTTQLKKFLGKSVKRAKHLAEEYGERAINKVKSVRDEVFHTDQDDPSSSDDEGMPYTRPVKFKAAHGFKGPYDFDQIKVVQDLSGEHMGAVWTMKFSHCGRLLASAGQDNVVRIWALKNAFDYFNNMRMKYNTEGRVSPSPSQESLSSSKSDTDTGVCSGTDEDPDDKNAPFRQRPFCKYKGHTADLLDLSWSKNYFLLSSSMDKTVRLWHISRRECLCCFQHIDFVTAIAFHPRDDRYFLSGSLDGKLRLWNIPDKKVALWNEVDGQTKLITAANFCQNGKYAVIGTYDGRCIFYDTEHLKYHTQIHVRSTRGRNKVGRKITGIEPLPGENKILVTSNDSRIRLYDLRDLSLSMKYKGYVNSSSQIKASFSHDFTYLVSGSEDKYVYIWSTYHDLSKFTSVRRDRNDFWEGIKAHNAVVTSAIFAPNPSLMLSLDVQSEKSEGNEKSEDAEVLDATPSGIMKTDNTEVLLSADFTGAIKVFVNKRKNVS
UniProt Q16795, whole entry: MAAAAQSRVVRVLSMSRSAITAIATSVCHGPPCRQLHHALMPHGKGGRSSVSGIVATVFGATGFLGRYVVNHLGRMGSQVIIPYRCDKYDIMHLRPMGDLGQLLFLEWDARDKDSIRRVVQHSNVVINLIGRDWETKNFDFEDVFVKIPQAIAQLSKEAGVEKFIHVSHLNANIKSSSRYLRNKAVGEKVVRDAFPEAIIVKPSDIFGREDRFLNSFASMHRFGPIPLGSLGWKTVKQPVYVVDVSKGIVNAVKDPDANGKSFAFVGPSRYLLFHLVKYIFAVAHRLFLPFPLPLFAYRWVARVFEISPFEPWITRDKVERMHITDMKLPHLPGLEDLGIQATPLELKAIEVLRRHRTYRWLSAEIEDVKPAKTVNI
UniProt Q9BZJ0: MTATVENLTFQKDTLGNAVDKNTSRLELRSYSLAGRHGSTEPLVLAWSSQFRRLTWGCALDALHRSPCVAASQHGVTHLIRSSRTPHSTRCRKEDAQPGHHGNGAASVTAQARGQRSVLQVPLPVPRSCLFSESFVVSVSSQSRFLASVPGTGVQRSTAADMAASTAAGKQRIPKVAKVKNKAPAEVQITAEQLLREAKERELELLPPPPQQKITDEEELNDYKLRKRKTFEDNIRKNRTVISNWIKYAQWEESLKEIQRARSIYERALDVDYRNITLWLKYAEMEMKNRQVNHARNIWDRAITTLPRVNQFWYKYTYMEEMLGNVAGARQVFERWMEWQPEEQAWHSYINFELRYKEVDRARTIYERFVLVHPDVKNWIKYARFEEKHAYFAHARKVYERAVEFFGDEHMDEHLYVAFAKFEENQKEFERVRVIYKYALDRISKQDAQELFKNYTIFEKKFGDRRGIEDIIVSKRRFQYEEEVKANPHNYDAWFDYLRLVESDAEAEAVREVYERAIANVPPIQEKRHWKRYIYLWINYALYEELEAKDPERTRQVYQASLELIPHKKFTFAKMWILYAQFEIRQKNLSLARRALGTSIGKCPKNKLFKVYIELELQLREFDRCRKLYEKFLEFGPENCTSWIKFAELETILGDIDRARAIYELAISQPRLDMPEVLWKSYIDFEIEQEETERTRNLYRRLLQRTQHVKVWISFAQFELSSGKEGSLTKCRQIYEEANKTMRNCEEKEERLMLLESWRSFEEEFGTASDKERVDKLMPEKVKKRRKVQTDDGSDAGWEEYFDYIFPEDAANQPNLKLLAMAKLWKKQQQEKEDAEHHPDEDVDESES
UniProt Q3T8J9: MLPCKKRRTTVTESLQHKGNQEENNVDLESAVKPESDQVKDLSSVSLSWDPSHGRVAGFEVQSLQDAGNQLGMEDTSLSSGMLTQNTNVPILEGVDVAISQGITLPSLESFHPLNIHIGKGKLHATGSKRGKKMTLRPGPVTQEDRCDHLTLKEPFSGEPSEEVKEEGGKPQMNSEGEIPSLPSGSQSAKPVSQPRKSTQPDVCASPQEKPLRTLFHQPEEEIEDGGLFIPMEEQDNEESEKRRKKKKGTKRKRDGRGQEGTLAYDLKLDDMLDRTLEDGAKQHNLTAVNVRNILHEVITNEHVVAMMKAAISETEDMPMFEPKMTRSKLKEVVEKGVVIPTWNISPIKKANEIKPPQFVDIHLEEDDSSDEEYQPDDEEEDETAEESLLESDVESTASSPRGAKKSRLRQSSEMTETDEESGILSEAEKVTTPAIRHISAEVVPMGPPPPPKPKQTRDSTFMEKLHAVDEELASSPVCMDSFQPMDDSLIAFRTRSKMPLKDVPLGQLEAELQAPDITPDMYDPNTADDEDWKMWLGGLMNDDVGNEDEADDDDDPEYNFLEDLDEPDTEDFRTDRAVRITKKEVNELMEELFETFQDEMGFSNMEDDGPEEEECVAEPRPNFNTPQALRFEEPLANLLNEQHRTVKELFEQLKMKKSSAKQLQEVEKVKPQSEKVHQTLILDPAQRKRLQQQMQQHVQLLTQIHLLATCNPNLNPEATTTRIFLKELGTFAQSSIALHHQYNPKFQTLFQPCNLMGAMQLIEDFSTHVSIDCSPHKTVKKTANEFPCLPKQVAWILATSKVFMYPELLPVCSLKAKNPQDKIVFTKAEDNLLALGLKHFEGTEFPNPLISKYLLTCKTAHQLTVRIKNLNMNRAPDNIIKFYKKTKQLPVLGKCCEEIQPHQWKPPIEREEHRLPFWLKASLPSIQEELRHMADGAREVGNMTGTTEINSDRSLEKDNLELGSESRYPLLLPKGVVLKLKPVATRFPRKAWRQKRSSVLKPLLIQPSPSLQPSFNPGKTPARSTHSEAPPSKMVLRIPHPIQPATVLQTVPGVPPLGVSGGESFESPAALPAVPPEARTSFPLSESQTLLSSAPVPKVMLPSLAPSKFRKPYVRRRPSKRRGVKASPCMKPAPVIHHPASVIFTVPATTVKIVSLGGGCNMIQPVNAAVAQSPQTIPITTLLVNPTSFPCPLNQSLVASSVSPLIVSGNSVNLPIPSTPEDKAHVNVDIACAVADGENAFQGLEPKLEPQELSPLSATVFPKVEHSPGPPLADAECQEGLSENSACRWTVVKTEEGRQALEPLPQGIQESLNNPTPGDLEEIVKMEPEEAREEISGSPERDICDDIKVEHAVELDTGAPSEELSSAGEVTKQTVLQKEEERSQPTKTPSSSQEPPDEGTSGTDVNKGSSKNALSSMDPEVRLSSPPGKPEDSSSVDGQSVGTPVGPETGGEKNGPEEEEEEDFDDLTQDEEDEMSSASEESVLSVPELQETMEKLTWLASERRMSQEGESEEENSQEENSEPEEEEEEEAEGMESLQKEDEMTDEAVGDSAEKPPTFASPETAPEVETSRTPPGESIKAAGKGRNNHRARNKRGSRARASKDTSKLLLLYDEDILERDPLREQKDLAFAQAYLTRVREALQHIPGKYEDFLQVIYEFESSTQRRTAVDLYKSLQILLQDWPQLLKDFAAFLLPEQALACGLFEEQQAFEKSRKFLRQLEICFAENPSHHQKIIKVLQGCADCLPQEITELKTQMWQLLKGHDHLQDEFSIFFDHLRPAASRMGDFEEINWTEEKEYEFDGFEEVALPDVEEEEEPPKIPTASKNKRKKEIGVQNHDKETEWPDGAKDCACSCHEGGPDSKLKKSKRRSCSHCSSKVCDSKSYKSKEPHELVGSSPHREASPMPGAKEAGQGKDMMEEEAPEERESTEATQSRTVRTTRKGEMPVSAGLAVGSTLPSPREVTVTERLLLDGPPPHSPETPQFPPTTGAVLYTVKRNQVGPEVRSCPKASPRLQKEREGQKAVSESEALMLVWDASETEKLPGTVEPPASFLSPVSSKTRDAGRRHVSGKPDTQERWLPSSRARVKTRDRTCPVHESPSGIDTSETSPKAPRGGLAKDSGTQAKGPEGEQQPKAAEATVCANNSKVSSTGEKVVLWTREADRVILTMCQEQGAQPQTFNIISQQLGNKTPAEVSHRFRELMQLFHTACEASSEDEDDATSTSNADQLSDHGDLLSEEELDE

Compound: Nc1nc2c(ncn2[C@@H]2O[C@H](COP(=O)(O)OP(=O)(O)OP(=O)(O)O)[C@@H](O)[C@H]2O)c(=O)[nH]1 [guanosine triphosphate]
Assay: NP40-soluble protein abundance relative to vehicle (solubility fold change) (ratio); higher = more soluble protein in presence of GTP
Method in brief: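 Across three independent experiments, values are fold changes against the detergent-processed vehicle for each replicate, based on vsn-normalised intensities. The samples were Jurkat crude lysate treated with eight concentrations (0.1 to 10 mM) for 10 min at room temperature and then 3 min at 37 °C. Lysate was solubilised with 0.8% NP40 and benzonase, ultracentrifuged, and the supernatant analysed by TMT-labelled LC-MS/MS.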

Target	NP40-soluble protein abundance (concentration: 0.1mM)	NP40-soluble protein abundance (concentration: 0.5mM)	NP40-soluble protein abundance (concentration: 1mM)	NP40-soluble protein abundance (concentration: 2mM)	NP40-soluble protein abundance (concentration: 4mM)	NP40-soluble protein abundance (concentration: 6mM)	NP40-soluble protein abundance (concentration: 8mM)	NP40-soluble protein abundance (concentration: 10mM)
HSP90AB4P (UniProt Q58FF6)	0.892 ± 0.094	0.926 ± 0.14	0.902 ± 0.16	0.862 ± 0.076	0.952 ± 0.15	0.904 ± 0.16	0.888 ± 0.15	0.888 ± 0.15
EXOSC7 (UniProt Q15024)	1.09 ± 0.084	1.01 ± 0.071	1.06 ± 0.086	1.11 ± 0.12	1.26 ± 0.13	1.17 ± 0.12	1.22 ± 0.077	1.18 ± 0.061
BEND3 (UniProt Q5T5X7)	1.05 ± 0.043	0.98 ± 0.075	0.995 ± 0.038	1.04 ± 0.08	1.01 ± 0.081	0.968 ± 0.099	1.05 ± 0.079	0.989 ± 0.07
UniProt Q16537 and related entries	0.973 ± 0.07	1 ± 0.048	0.937 ± 0.013	0.908 ± 0.026	0.889 ± 0.04	0.897 ± 0.025	0.901 ± 0.052	0.887 ± 0.0097
BMS1 (UniProt Q14692)	0.895 ± 0.022	0.926 ± 0.077	1.02 ± 0.018	1.01 ± 0.12	1 ± 0.046	1.04 ± 0.089	1.02 ± 0.03	1.12 ± 0.11
Q5QPM7 and related entries (UniProt Q92530)	0.996 ± 0.039	0.953 ± 0.033	1.04 ± 0.046	1.05 ± 0.02	1.04 ± 0.036	1.03 ± 0.069	0.999 ± 0.012	1.04 ± 0.025
UniProt Q53GS7 and related entries	0.981 ± 0.017	1.03 ± 0.16	1.02 ± 0.078	1.08 ± 0.027	1.14 ± 0.056	1.13 ± 0.016	1.152 ± 0.011	1.28 ± 0.11
SEC23B (UniProt Q15437)	1.07 ± 0.046	1.08 ± 0.055	0.943 ± 0.042	0.988 ± 0.085	0.97 ± 0.073	0.955 ± 0.055	0.925 ± 0.036	0.906 ± 0.088
UniProt Q4J6C6 and related entries	1.02 ± 0.045	1.02 ± 0.052	0.984 ± 0.041	0.964 ± 0.032	0.928 ± 0.039	0.937 ± 0.025	0.945 ± 0.013	0.887 ± 0.045
UniProt Q5JSH3 and related entries	0.964 ± 0.05	0.965 ± 0.038	0.958 ± 0.064	0.925 ± 0.057	0.922 ± 0.09	0.911 ± 0.075	0.949 ± 0.056	0.922 ± 0.061
NDUFA9 (UniProt Q16795)	1.09 ± 0.09	1.11 ± 0.15	1.06 ± 0.14	1.14 ± 0.25	1.17 ± 0.21	1.11 ± 0.22	1.07 ± 0.16	1.06 ± 0.15
UniProt Q15750 and related entries	0.94 ± 0.1	0.963 ± 0.1	0.892 ± 0.081	0.949 ± 0.045	0.894 ± 0.064	0.89 ± 0.046	0.877 ± 0.099	0.929 ± 0.095
Q5JY65 and related entries (UniProt Q9BZJ0)	1.12 ± 0.048	1.07 ± 0.063	1.06 ± 0.042	1.04 ± 0.059	1.03 ± 0.068	0.963 ± 0.068	1.02 ± 0.1	0.917 ± 0.041
UniProt Q16531 and related entries	1.01 ± 0.041	1.06 ± 0.087	0.959 ± 0.036	1.01 ± 0.1	0.974 ± 0.078	1 ± 0.085	0.926 ± 0.033	0.931 ± 0.058
UniProt Q3T8J9 and related entries	0.965 ± 0.035	1.06 ± 0.038	1.07 ± 0.024	1.15 ± 0.071	1.13 ± 0.025	1.1 ± 0.046	1.03 ± 0.055	1.11 ± 0.11
